Values after ≈ are worked out from the molar mass of the structure shown. This continues a long series; more values of the same kind are listed elsewhere.
Test system: Escherichia coli
Assay: minimum inhibitory concentration (MIC)
Description: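 Broth microdilution MIC (Sensititre BOPO7F bovine plate, CLSI methods) of 19 antimicrobials against field isolates of P. multocida, M. haemolytica, H. somni (deep nasopharyngeal swabs) and E. coli, Enterococcus spp. (rectal swabs) from weaned dairy heifers. Incubation 16-24 h at 35 C. MIC is the lowest concentration preventing visible growth. Values with <= or > lie at the tested range limits. Trimethoprim-sulfamethoxazole is given as the trimethoprim component of a 1:19 mixture.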

CO/N=C(\C(=O)N[C@@H]1C(=O)N2C(C(=O)O)=C(CSC(=O)c3ccco3)CS[C@H]12)c1csc(N)n1 [Ceftiofur]
Conditions	minimum inhibitory concentration [µg/mL]
isolate (source animal id): 1	0.5 (≈ 0.955 µM)
isolate (source animal id): 2	0.5 (≈ 0.955 µM)
isolate (source animal id): 3	0.5 (≈ 0.955 µM)
isolate (source animal id): 4	≤ 0.25
isolate (source animal id): 5	≤ 0.25
isolate (source animal id): 6	0.5 (≈ 0.955 µM)
isolate (source animal id): 7	0.5 (≈ 0.955 µM)
isolate (source animal id): 17	0.5 (≈ 0.955 µM)
isolate (source animal id): 18	0.5 (≈ 0.955 µM)
isolate (source animal id): 19	≤ 0.25
isolate (source animal id): 20	0.5 (≈ 0.955 µM)
isolate (source animal id): 21	0.5 (≈ 0.955 µM)
isolate (source animal id): 22	0.5 (≈ 0.955 µM)
isolate (source animal id): 23	0.5 (≈ 0.955 µM)
isolate (source animal id): 24	0.5 (≈ 0.955 µM)
isolate (source animal id): 25	0.5 (≈ 0.955 µM)
isolate (source animal id): 26	0.5 (≈ 0.955 µM)
isolate (source animal id): 27	8 (≈ 15.3 µM)
isolate (source animal id): 28	0.5 (≈ 0.955 µM)
isolate (source animal id): 29	0.5 (≈ 0.955 µM)
isolate (source animal id): 30	0.5 (≈ 0.955 µM)
isolate (source animal id): 31	0.5 (≈ 0.955 µM)
isolate (source animal id): 32	> 8
isolate (source animal id): 33	8 (≈ 15.3 µM)
isolate (source animal id): 34	≤ 0.25
isolate (source animal id): 35	8 (≈ 15.3 µM)
isolate (source animal id): 36	0.5 (≈ 0.955 µM)
isolate (source animal id): 37	> 8
isolate (source animal id): 38	0.5 (≈ 0.955 µM)
isolate (source animal id): 39	> 8
isolate (source animal id): 40	≤ 0.25
isolate (source animal id): 41	> 8
isolate (source animal id): 42	≤ 0.25
isolate (source animal id): 43	8 (≈ 15.3 µM)
isolate (source animal id): 44	≤ 0.25
isolate (source animal id): 45	≤ 0.25
isolate (source animal id): 46	≤ 0.25
isolate (source animal id): 47	0.5 (≈ 0.955 µM)
isolate (source animal id): 48	≤ 0.25
isolate (source animal id): 49	0.5 (≈ 0.955 µM)
isolate (source animal id): 50	0.5 (≈ 0.955 µM)
isolate (source animal id): 51	0.5 (≈ 0.955 µM)
isolate (source animal id): 52	0.5 (≈ 0.955 µM)
isolate (source animal id): 53	0.5 (≈ 0.955 µM)
isolate (source animal id): 54	≤ 0.25
isolate (source animal id): 55	0.5 (≈ 0.955 µM)
isolate (source animal id): 56	0.5 (≈ 0.955 µM)
isolate (source animal id): 57	> 8
isolate (source animal id): 58	≤ 0.25
isolate (source animal id): 59	0.5 (≈ 0.955 µM)
isolate (source animal id): 60	0.5 (≈ 0.955 µM)
isolate (source animal id): 61	≤ 0.25
isolate (source animal id): 62	0.5 (≈ 0.955 µM)
isolate (source animal id): 63	0.5 (≈ 0.955 µM)
isolate (source animal id): 64	0.5 (≈ 0.955 µM)
isolate (source animal id): 65	≤ 0.25
isolate (source animal id): 66	0.5 (≈ 0.955 µM)
isolate (source animal id): 67	≤ 0.25
isolate (source animal id): 68	0.5 (≈ 0.955 µM)
isolate (source animal id): 69	0.5 (≈ 0.955 µM)
isolate (source animal id): 70	0.5 (≈ 0.955 µM)
isolate (source animal id): 71	0.5 (≈ 0.955 µM)
isolate (source animal id): 72	0.5 (≈ 0.955 µM)
isolate (source animal id): 73	0.5 (≈ 0.955 µM)
isolate (source animal id): 74	0.5 (≈ 0.955 µM)
isolate (source animal id): 75	0.5 (≈ 0.955 µM)
isolate (source animal id): 76	0.5 (≈ 0.955 µM)
isolate (source animal id): 77	0.5 (≈ 0.955 µM)
isolate (source animal id): 78	0.5 (≈ 0.955 µM)
isolate (source animal id): 79	0.5 (≈ 0.955 µM)
isolate (source animal id): 80	0.5 (≈ 0.955 µM)
isolate (source animal id): 81	0.5 (≈ 0.955 µM)
isolate (source animal id): 82	0.5 (≈ 0.955 µM)
isolate (source animal id): 83	≤ 0.25
isolate (source animal id): 84	≤ 0.25
isolate (source animal id): 85	0.5 (≈ 0.955 µM)
isolate (source animal id): 86	0.5 (≈ 0.955 µM)
isolate (source animal id): 87	≤ 0.25
isolate (source animal id): 88	≤ 0.25
isolate (source animal id): 89	≤ 0.25
isolate (source animal id): 90	0.5 (≈ 0.955 µM)
isolate (source animal id): 91	0.5 (≈ 0.955 µM)
isolate (source animal id): 92	≤ 0.25
isolate (source animal id): 93	≤ 0.25
isolate (source animal id): 94	0.5 (≈ 0.955 µM)
isolate (source animal id): 95	≤ 0.25
isolate (source animal id): 96	≤ 0.25
isolate (source animal id): 97	0.5 (≈ 0.955 µM)
isolate (source animal id): 189	≤ 0.25
isolate (source animal id): 190	8 (≈ 15.3 µM)
isolate (source animal id): 191	≤ 0.25
isolate (source animal id): 192	0.5 (≈ 0.955 µM)
isolate (source animal id): 193	8 (≈ 15.3 µM)
isolate (source animal id): 194	0.5 (≈ 0.955 µM)
isolate (source animal id): 195	≤ 0.25
isolate (source animal id): 196	0.5 (≈ 0.955 µM)
isolate (source animal id): 197	≤ 0.25
isolate (source animal id): 198	> 8
isolate (source animal id): 199	0.5 (≈ 0.955 µM)
isolate (source animal id): 200	0.5 (≈ 0.955 µM)
isolate (source animal id): 201	≤ 0.25
isolate (source animal id): 202	≤ 0.25
isolate (source animal id): 203	0.5 (≈ 0.955 µM)
isolate (source animal id): 204	≤ 0.25
isolate (source animal id): 205	≤ 0.25
isolate (source animal id): 206	0.5 (≈ 0.955 µM)
isolate (source animal id): 207	> 8
isolate (source animal id): 208	≤ 0.25
isolate (source animal id): 209	≤ 0.25
isolate (source animal id): 210	≤ 0.25
isolate (source animal id): 211	0.5 (≈ 0.955 µM)
isolate (source animal id): 212	> 8
isolate (source animal id): 213	≤ 0.25
isolate (source animal id): 214	0.5 (≈ 0.955 µM)
isolate (source animal id): 215	0.5 (≈ 0.955 µM)
isolate (source animal id): 216	≤ 0.25
isolate (source animal id): 217	≤ 0.25
isolate (source animal id): 218	0.5 (≈ 0.955 µM)
isolate (source animal id): 219	0.5 (≈ 0.955 µM)
isolate (source animal id): 220	≤ 0.25
isolate (source animal id): 221	≤ 0.25
isolate (source animal id): 222	≤ 0.25
isolate (source animal id): 223	0.5 (≈ 0.955 µM)
isolate (source animal id): 224	≤ 0.25
isolate (source animal id): 225	0.5 (≈ 0.955 µM)
isolate (source animal id): 226	> 8
isolate (source animal id): 227	≤ 0.25
isolate (source animal id): 228	0.5 (≈ 0.955 µM)
isolate (source animal id): 229	0.5 (≈ 0.955 µM)
isolate (source animal id): 230	0.5 (≈ 0.955 µM)
isolate (source animal id): 231	0.5 (≈ 0.955 µM)
isolate (source animal id): 232	0.5 (≈ 0.955 µM)
isolate (source animal id): 233	≤ 0.25
isolate (source animal id): 234	0.5 (≈ 0.955 µM)
isolate (source animal id): 235	≤ 0.25
isolate (source animal id): 236	0.5 (≈ 0.955 µM)
isolate (source animal id): 237	1 (≈ 1.91 µM)
isolate (source animal id): 238	≤ 0.25
isolate (source animal id): 239	0.5 (≈ 0.955 µM)
isolate (source animal id): 240	0.5 (≈ 0.955 µM)
isolate (source animal id): 241	0.5 (≈ 0.955 µM)
isolate (source animal id): 242	0.5 (≈ 0.955 µM)
isolate (source animal id): 243	0.5 (≈ 0.955 µM)
isolate (source animal id): 244	0.5 (≈ 0.955 µM)
isolate (source animal id): 245	1 (≈ 1.91 µM)
isolate (source animal id): 246	0.5 (≈ 0.955 µM)
isolate (source animal id): 247	0.5 (≈ 0.955 µM)
isolate (source animal id): 248	0.5 (≈ 0.955 µM)
isolate (source animal id): 249	0.5 (≈ 0.955 µM)
isolate (source animal id): 250	0.5 (≈ 0.955 µM)
isolate (source animal id): 251	0.5 (≈ 0.955 µM)
isolate (source animal id): 252	0.5 (≈ 0.955 µM)
isolate (source animal id): 253	0.5 (≈ 0.955 µM)
isolate (source animal id): 254	0.5 (≈ 0.955 µM)
isolate (source animal id): 255	0.5 (≈ 0.955 µM)
isolate (source animal id): 256	0.5 (≈ 0.955 µM)
isolate (source animal id): 257	0.5 (≈ 0.955 µM)
isolate (source animal id): 258	0.5 (≈ 0.955 µM)
isolate (source animal id): 259	0.5 (≈ 0.955 µM)
isolate (source animal id): 260	0.5 (≈ 0.955 µM)
isolate (source animal id): 261	0.5 (≈ 0.955 µM)
isolate (source animal id): 262	0.5 (≈ 0.955 µM)
isolate (source animal id): 263	≤ 0.25
isolate (source animal id): 264	0.5 (≈ 0.955 µM)
isolate (source animal id): 265	0.5 (≈ 0.955 µM)
isolate (source animal id): 266	≤ 0.25
isolate (source animal id): 267	≤ 0.25
isolate (source animal id): 268	0.5 (≈ 0.955 µM)
isolate (source animal id): 269	0.5 (≈ 0.955 µM)
isolate (source animal id): 270	0.5 (≈ 0.955 µM)
isolate (source animal id): 271	≤ 0.25
isolate (source animal id): 272	≤ 0.25
isolate (source animal id): 273	≤ 0.25
isolate (source animal id): 274	0.5 (≈ 0.955 µM)
isolate (source animal id): 275	≤ 0.25
isolate (source animal id): 276	0.5 (≈ 0.955 µM)
isolate (source animal id): 277	≤ 0.25
isolate (source animal id): 278	0.5 (≈ 0.955 µM)
isolate (source animal id): 279	0.5 (≈ 0.955 µM)
isolate (source animal id): 280	0.5 (≈ 0.955 µM)
isolate (source animal id): 281	0.5 (≈ 0.955 µM)
isolate (source animal id): 282	0.5 (≈ 0.955 µM)
isolate (source animal id): 283	0.5 (≈ 0.955 µM)
isolate (source animal id): 284	1 (≈ 1.91 µM)
isolate (source animal id): 285	> 8
isolate (source animal id): 286	0.5 (≈ 0.955 µM)
isolate (source animal id): 287	0.5 (≈ 0.955 µM)
isolate (source animal id): 288	≤ 0.25
isolate (source animal id): 289	0.5 (≈ 0.955 µM)
isolate (source animal id): 290	0.5 (≈ 0.955 µM)
isolate (source animal id): 291	0.5 (≈ 0.955 µM)
isolate (source animal id): 292	0.5 (≈ 0.955 µM)
isolate (source animal id): 293	> 8
isolate (source animal id): 294	≤ 0.25
isolate (source animal id): 295	0.5 (≈ 0.955 µM)
isolate (source animal id): 296	≤ 0.25
isolate (source animal id): 297	0.5 (≈ 0.955 µM)
isolate (source animal id): 298	0.5 (≈ 0.955 µM)
isolate (source animal id): 299	≤ 0.25
isolate (source animal id): 300	0.5 (≈ 0.955 µM)
isolate (source animal id): 301	0.5 (≈ 0.955 µM)
isolate (source animal id): 302	≤ 0.25
isolate (source animal id): 303	≤ 0.25
isolate (source animal id): 304	0.5 (≈ 0.955 µM)
isolate (source animal id): 305	≤ 0.25
isolate (source animal id): 306	0.5 (≈ 0.955 µM)
isolate (source animal id): 307	≤ 0.25
isolate (source animal id): 308	0.5 (≈ 0.955 µM)
isolate (source animal id): 309	0.5 (≈ 0.955 µM)
isolate (source animal id): 310	0.5 (≈ 0.955 µM)
isolate (source animal id): 311	≤ 0.25
isolate (source animal id): 312	≤ 0.25
isolate (source animal id): 313	0.5 (≈ 0.955 µM)
isolate (source animal id): 314	≤ 0.25
isolate (source animal id): 315	≤ 0.25
isolate (source animal id): 316	≤ 0.25
isolate (source animal id): 317	8 (≈ 15.3 µM)
isolate (source animal id): 318	0.5 (≈ 0.955 µM)
isolate (source animal id): 319	≤ 0.25
isolate (source animal id): 320	0.5 (≈ 0.955 µM)
isolate (source animal id): 321	0.5 (≈ 0.955 µM)
isolate (source animal id): 322	8 (≈ 15.3 µM)
isolate (source animal id): 323	≤ 0.25
isolate (source animal id): 324	≤ 0.25
isolate (source animal id): 325	0.5 (≈ 0.955 µM)
isolate (source animal id): 326	≤ 0.25
isolate (source animal id): 327	≤ 0.25
isolate (source animal id): 328	≤ 0.25
isolate (source animal id): 329	≤ 0.25
isolate (source animal id): 330	8 (≈ 15.3 µM)
isolate (source animal id): 331	0.5 (≈ 0.955 µM)
isolate (source animal id): 332	0.5 (≈ 0.955 µM)
isolate (source animal id): 333	0.5 (≈ 0.955 µM)
isolate (source animal id): 334	0.5 (≈ 0.955 µM)
isolate (source animal id): 335	0.5 (≈ 0.955 µM)
isolate (source animal id): 336	≤ 0.25
isolate (source animal id): 337	0.5 (≈ 0.955 µM)
isolate (source animal id): 338	0.5 (≈ 0.955 µM)
isolate (source animal id): 339	≤ 0.25
isolate (source animal id): 340	≤ 0.25
isolate (source animal id): 341	≤ 0.25

From the supplement of paper PMC8612539
